Measured values: paper PMC12540039
No constants are given. Whether binding was seen depends on the method and setting. Binding seen in cells or lysates may run through a third protein. Some results given as binding are weak or reduced against the parent protein; the word gives no strength.

Protein sequences, listed by entry. Tags and fused reporters are not part of them. Residues count along the entry.
UniProt P02340: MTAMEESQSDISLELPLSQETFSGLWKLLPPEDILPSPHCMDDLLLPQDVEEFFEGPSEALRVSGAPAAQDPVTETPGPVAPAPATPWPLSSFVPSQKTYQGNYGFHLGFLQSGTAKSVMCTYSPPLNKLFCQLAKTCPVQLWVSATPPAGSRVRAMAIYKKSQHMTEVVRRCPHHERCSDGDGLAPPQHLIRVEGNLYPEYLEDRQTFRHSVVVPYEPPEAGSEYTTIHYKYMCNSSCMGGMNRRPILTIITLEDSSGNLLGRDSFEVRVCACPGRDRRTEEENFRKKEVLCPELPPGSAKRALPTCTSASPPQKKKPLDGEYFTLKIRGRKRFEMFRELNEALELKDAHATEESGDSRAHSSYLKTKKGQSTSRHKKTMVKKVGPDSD
UniProt P38647, residues 47-679: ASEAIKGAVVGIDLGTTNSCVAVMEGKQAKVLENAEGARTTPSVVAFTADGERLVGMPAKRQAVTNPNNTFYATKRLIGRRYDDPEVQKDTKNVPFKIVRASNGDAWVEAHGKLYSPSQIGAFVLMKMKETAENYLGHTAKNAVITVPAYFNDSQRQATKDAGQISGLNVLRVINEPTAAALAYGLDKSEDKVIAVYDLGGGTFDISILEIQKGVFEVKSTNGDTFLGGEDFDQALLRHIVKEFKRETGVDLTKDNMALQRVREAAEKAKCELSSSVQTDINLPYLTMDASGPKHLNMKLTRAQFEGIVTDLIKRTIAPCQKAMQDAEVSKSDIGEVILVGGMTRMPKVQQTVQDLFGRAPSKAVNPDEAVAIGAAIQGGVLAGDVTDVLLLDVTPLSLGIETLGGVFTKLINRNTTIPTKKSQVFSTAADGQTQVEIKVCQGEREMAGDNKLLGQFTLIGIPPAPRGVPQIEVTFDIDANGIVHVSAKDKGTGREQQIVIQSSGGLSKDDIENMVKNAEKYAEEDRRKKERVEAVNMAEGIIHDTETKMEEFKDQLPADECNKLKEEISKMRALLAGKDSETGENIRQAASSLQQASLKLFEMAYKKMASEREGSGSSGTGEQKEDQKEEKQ

Experiments:
[1] = target: p53 (mouse (endogenous in gastrocnemius muscle)) (UniProt P02340); experiment: co-IP; gastrocnemius muscle lysates of HFD-fed control and iMp53 KO mice; Classic Magnetic IP Kit, IP Lysis/Wash Buffer with phosphatase inhibitors; incubated overnight at 4 °C with control IgG or specific antibody, magnetic beads 1 h at room temperature; detected by Western blotting
[2] = target: glucose-regulated protein 75 (mouse (endogenous in gastrocnemius muscle)) (UniProt P38647); experiment: as above

| binding [1] | binding [2] | Substance |
| --- | --- | --- |
| binds |  | glucose-regulated protein 75 (from UniProt P38647 47-679) |
|  | binds | p53 (from UniProt P02340 1-390) |
